PubChem BioAssay AID1259254 – NCATS | 2017

- Assay: 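Genome-wide screen for genes that prevent DNA re-replication in cancer cells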 (primary screen)
- System: human HCT116 colorectal cancer cells
- Reagents: single siRNA against human genes
- Timing: 3 days
- Measurement: 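Imaged Hoechst DNA stain sorts each cell into a cycle phase by DNA amount; per plate, G2 fraction set to 0% for non-targeting and 100% for GMNN siRNA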
- Scale: G2 robust z-score: higher = more G2 cells, more excess DNA replication
- Rule for the call: 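Active siRNAs have a G2 robust z of 5 or more median absolute deviations over the median, which in these data means about 38% or higher of GMNN control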
Here is an unselected part of about 59,000 reagents tested. About 1,550 of them (2.6%) count as active. 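G2 share is only a proxy for re-replication; each gene was hit by three separate siRNAs, and active genes were retested.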 Reagents against one gene are numbered here. Further read-outs or replicates are left out here. Not stated in the record: the amount of reagent.

The opening 6 records, to show the layout:
gene | reagent no. | G2 robust z-score | outcome
SORD (sorbitol dehydrogenase) | 1 | 3.42 | inactive
SORD (sorbitol dehydrogenase) | 2 | 1.83 | inactive
SORD (sorbitol dehydrogenase) | 3 | -0.611 | inactive
IFNAR2 (interferon alpha and beta receptor subunit 2) | 1 | 0.333 | inactive
IFNAR2 (interferon alpha and beta receptor subunit 2) | 2 | 0.17 | inactive
IFNAR2 (interferon alpha and beta receptor subunit 2) | 3 | 0.228 | inactive

The listing, repeating the preview:
gene | reagent no. | G2 robust z-score | outcome
SORD (sorbitol dehydrogenase) | 1 | 3.42 | inactive
SORD (sorbitol dehydrogenase) | 2 | 1.83 | inactive
SORD (sorbitol dehydrogenase) | 3 | -0.611 | inactive
IFNAR2 (interferon alpha and beta receptor subunit 2) | 1 | 0.333 | inactive
IFNAR2 (interferon alpha and beta receptor subunit 2) | 2 | 0.17 | inactive
IFNAR2 (interferon alpha and beta receptor subunit 2) | 3 | 0.228 | inactive
MRPL12 (mitochondrial ribosomal protein L12) | 1 | 3.6 | inactive
MRPL12 (mitochondrial ribosomal protein L12) | 2 | -0.585 | inactive
MRPL12 (mitochondrial ribosomal protein L12) | 3 | 0.247 | inactive
METTL17 (methyltransferase like 17) | 1 | -0.162 | inactive
METTL17 (methyltransferase like 17) | 2 | 6.19 | active
METTL17 (methyltransferase like 17) | 3 | 10.7 | active
NSG1 (neuronal vesicle trafficking associated 1) | 1 | 1.46 | inactive
NSG1 (neuronal vesicle trafficking associated 1) | 2 | 1.68 | inactive
NSG1 (neuronal vesicle trafficking associated 1) | 3 | 0.455 | inactive
GJC1 (gap junction protein gamma 1) | 1 | -0.205 | inactive
GJC1 (gap junction protein gamma 1) | 2 | -0.373 | inactive
GJC1 (gap junction protein gamma 1) | 3 | 0.409 | inactive
DLL4 (delta like canonical Notch ligand 4) | 1 | 1.33 | inactive
DLL4 (delta like canonical Notch ligand 4) | 2 | -0.924 | inactive
DLL4 (delta like canonical Notch ligand 4) | 3 | 2.91 | inactive
TMPPE (transmembrane protein with metallophosphoesterase domain) | 1 | -0.486 | inactive
TMPPE (transmembrane protein with metallophosphoesterase domain) | 2 | -0.836 | inactive
TMPPE (transmembrane protein with metallophosphoesterase domain) | 3 | -0.895 | inactive
LOC729887 (retired record) | 1 | -0.345 | inactive
LOC729887 (retired record) | 2 | -0.407 | inactive
LOC729887 (retired record) | 3 | -0.167 | inactive
TRPM2 | 1 | 0.895 | inactive
TRPM2 | 2 | -0.667 | inactive
TRPM2 | 3 | 1.1 | inactive
PUM1 (pumilio RNA binding family member 1) | 1 | -0.222 | inactive
PUM1 (pumilio RNA binding family member 1) | 2 | -0.365 | inactive
PUM1 (pumilio RNA binding family member 1) | 3 | -0.558 | inactive
LOC644841 (retired record) | 1 | -0.0447 | inactive
LOC644841 (retired record) | 2 | -0.888 | inactive
LOC644841 (retired record) | 3 | -0.442 | inactive
LOC644841 (retired record) | 4 | 0.947 | inactive
LOC644841 (retired record) | 5 | 0.594 | inactive
LOC644841 (retired record) | 6 | 0.115 | inactive
CYSTM1 (cysteine rich transmembrane module containing 1) | 1 | 1.14 | inactive
CYSTM1 (cysteine rich transmembrane module containing 1) | 2 | 0.232 | inactive
CYSTM1 (cysteine rich transmembrane module containing 1) | 3 | -0.76 | inactive
NR2F6 (nuclear receptor subfamily 2 group F member 6) | 1 | 0.165 | inactive
NR2F6 (nuclear receptor subfamily 2 group F member 6) | 2 | -0.334 | inactive
NR2F6 (nuclear receptor subfamily 2 group F member 6) | 3 | 1.96 | inactive
LRP8 (LDL receptor related protein 8) | 1 | 1.94 | inactive
LRP8 (LDL receptor related protein 8) | 2 | 0.0407 | inactive
LRP8 (LDL receptor related protein 8) | 3 | 0.622 | inactive
MICB (MHC class I polypeptide-related sequence B) | 1 | 0.0703 | inactive
MICB (MHC class I polypeptide-related sequence B) | 2 | -0.236 | inactive
MICB (MHC class I polypeptide-related sequence B) | 3 | 0.267 | inactive
CRYGS (crystallin gamma S) | 1 | 0.675 | inactive
CRYGS (crystallin gamma S) | 2 | -0.218 | inactive
CRYGS (crystallin gamma S) | 3 | 2.89 | inactive
DLC1 (DLC1 Rho GTPase activating protein) | 1 | 0.189 | inactive
DLC1 (DLC1 Rho GTPase activating protein) | 2 | -0.71 | inactive
DLC1 (DLC1 Rho GTPase activating protein) | 3 | 0.485 | inactive
PRR18 (proline rich 18) | 1 | -0.58 | inactive
PRR18 (proline rich 18) | 2 | 0.169 | inactive
PRR18 (proline rich 18) | 3 | -0.377 | inactive
PLEKHO2 (pleckstrin homology domain containing O2) | 1 | -0.216 | inactive
PLEKHO2 (pleckstrin homology domain containing O2) | 2 | -0.142 | inactive
PLEKHO2 (pleckstrin homology domain containing O2) | 3 | -0.51 | inactive
ADRB1 (adrenoceptor beta 1) | 1 | -0.128 | inactive
ADRB1 (adrenoceptor beta 1) | 2 | -0.416 | inactive
ADRB1 (adrenoceptor beta 1) | 3 | -0.00355 | inactive
UBE2O (ubiquitin conjugating enzyme E2 O) | 1 | -0.617 | inactive
UBE2O (ubiquitin conjugating enzyme E2 O) | 2 | -0.533 | inactive
UBE2O (ubiquitin conjugating enzyme E2 O) | 3 | 3.08 | inactive
